Measurements as given in the supplement of paper PMC10849652.
Some of the results follow. Residues, ends and D or L forms follow the SMILES beside them. *: point of attachment. Cbz = O=C(OCc1ccccc1)*

By UniProt entry, the sequences of proteins in these tests, tags left out. Where a name states a change or a piece, a line headed by the entry shows the natural chain unless it says otherwise.
UniProt Q9NSK0: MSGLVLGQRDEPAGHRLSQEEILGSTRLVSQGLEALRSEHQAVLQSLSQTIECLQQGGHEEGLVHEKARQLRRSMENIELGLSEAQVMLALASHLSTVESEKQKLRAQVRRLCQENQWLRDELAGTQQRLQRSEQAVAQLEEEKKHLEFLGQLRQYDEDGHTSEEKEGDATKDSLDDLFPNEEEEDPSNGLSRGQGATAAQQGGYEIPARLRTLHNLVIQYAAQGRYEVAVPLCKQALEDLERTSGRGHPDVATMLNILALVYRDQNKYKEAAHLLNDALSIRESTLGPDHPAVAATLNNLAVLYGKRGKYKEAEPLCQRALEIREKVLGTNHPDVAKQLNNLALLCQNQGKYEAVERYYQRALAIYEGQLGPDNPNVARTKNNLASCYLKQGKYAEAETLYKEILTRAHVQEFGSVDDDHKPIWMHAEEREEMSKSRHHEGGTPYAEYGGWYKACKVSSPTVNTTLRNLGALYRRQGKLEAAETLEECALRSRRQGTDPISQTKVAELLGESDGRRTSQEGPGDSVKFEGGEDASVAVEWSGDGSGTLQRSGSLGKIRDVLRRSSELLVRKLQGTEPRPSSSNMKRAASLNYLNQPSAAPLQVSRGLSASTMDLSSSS
UniProt P50748: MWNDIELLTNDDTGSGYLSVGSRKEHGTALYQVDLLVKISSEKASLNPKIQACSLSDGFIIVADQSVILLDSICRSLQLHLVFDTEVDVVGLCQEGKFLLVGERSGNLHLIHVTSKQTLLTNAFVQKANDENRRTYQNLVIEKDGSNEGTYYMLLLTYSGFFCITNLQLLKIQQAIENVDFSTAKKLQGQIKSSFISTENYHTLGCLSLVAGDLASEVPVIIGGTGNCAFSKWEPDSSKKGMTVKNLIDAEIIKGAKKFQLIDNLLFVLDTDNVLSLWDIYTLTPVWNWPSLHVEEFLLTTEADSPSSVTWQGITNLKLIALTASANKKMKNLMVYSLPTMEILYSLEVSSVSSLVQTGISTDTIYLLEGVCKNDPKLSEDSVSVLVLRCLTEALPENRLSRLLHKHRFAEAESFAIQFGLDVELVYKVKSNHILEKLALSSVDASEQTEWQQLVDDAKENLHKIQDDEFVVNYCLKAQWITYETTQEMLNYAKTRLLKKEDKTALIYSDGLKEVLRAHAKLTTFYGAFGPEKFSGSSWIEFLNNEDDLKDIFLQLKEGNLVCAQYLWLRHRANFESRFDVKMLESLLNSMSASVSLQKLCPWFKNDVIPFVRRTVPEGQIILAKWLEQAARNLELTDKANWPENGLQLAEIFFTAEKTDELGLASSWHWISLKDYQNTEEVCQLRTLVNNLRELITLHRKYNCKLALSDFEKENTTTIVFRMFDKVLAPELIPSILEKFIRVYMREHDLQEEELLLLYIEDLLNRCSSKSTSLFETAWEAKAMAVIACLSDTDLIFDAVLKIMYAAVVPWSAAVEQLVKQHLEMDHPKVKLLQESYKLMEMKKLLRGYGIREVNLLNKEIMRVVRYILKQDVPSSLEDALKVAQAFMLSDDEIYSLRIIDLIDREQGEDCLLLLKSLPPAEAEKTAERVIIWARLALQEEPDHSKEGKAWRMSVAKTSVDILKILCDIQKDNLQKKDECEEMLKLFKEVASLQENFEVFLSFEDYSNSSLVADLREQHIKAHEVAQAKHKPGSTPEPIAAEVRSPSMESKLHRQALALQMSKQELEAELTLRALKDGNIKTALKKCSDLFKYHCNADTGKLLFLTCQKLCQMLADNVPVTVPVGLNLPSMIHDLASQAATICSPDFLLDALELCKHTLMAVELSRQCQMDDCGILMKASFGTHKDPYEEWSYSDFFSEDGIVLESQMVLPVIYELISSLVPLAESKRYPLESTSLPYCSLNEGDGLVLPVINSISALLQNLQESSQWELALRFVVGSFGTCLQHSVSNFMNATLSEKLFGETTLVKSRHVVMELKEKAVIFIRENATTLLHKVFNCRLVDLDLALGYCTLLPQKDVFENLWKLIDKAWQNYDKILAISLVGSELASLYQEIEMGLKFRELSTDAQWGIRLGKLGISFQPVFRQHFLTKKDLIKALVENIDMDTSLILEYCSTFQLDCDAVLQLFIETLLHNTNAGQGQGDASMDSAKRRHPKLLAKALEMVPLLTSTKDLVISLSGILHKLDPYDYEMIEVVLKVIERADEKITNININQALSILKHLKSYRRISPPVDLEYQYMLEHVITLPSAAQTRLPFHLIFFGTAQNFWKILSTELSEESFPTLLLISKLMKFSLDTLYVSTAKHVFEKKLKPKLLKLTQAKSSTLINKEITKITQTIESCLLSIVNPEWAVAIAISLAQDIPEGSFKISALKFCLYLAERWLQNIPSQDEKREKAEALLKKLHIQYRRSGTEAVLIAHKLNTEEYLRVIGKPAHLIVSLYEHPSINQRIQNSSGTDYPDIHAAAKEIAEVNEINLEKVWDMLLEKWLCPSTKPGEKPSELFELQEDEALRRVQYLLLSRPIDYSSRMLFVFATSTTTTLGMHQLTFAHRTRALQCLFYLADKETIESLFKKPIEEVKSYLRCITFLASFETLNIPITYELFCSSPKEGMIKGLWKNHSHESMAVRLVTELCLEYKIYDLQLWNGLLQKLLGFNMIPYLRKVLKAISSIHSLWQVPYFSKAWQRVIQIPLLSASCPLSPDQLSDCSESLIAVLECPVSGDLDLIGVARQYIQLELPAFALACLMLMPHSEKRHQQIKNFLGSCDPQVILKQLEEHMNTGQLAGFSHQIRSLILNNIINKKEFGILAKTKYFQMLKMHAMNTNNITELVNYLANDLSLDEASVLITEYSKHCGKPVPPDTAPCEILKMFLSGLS
UniProt Q8N6L1: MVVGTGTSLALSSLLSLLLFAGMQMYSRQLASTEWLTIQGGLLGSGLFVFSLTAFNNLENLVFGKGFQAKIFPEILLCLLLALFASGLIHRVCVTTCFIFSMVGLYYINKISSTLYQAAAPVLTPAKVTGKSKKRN
UniProt O60333: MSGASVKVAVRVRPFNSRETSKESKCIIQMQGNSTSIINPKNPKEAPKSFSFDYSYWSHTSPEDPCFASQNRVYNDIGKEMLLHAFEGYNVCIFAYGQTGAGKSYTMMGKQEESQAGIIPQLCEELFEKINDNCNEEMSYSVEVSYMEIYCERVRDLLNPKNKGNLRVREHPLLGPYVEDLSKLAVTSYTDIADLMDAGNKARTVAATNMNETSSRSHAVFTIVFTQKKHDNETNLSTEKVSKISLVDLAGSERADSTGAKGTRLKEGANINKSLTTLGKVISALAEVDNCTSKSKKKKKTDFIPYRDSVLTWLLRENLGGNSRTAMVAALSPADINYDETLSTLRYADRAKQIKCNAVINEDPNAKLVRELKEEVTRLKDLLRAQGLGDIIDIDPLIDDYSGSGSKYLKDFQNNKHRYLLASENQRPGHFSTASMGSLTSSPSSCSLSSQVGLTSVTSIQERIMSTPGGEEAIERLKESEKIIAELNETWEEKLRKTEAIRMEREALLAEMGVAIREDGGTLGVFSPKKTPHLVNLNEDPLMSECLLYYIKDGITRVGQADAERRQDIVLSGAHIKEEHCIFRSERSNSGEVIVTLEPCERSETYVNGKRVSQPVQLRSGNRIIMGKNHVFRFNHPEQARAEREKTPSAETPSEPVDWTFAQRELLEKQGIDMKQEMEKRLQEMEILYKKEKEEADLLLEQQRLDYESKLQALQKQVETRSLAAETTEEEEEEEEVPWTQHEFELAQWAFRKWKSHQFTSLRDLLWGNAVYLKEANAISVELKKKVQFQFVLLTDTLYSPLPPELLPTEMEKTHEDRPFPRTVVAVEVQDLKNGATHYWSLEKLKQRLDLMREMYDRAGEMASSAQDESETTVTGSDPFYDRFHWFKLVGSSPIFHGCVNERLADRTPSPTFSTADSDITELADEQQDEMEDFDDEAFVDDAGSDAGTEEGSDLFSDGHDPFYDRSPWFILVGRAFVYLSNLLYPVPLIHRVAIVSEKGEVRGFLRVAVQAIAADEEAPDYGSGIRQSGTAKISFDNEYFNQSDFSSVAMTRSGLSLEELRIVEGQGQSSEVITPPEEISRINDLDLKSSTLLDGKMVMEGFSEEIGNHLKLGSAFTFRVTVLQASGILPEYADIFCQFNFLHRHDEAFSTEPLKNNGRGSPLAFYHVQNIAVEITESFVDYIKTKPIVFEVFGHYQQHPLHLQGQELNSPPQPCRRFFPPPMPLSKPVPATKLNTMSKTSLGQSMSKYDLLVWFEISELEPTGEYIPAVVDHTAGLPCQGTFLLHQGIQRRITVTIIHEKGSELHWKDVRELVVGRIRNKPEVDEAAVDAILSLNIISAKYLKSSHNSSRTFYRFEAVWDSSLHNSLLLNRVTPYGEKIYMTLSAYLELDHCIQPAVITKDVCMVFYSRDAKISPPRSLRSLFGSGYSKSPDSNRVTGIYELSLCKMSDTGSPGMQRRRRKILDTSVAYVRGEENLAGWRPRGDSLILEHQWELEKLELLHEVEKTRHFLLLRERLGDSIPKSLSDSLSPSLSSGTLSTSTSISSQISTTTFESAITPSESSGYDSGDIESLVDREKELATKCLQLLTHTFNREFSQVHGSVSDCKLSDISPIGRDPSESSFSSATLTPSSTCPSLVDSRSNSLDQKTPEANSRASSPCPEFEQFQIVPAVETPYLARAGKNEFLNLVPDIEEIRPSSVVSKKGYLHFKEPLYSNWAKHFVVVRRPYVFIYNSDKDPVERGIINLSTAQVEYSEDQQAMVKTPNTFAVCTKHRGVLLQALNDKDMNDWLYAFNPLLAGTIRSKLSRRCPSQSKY
UniProt Q96A73: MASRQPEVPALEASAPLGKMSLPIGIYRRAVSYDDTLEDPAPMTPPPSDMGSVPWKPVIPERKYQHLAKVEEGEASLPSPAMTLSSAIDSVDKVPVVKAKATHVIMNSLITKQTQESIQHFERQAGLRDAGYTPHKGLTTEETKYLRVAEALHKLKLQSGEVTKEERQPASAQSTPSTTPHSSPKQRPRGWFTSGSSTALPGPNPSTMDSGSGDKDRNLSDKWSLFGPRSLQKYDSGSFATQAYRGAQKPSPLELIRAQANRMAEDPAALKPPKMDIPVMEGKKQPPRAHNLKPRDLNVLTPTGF
UniProt P52732: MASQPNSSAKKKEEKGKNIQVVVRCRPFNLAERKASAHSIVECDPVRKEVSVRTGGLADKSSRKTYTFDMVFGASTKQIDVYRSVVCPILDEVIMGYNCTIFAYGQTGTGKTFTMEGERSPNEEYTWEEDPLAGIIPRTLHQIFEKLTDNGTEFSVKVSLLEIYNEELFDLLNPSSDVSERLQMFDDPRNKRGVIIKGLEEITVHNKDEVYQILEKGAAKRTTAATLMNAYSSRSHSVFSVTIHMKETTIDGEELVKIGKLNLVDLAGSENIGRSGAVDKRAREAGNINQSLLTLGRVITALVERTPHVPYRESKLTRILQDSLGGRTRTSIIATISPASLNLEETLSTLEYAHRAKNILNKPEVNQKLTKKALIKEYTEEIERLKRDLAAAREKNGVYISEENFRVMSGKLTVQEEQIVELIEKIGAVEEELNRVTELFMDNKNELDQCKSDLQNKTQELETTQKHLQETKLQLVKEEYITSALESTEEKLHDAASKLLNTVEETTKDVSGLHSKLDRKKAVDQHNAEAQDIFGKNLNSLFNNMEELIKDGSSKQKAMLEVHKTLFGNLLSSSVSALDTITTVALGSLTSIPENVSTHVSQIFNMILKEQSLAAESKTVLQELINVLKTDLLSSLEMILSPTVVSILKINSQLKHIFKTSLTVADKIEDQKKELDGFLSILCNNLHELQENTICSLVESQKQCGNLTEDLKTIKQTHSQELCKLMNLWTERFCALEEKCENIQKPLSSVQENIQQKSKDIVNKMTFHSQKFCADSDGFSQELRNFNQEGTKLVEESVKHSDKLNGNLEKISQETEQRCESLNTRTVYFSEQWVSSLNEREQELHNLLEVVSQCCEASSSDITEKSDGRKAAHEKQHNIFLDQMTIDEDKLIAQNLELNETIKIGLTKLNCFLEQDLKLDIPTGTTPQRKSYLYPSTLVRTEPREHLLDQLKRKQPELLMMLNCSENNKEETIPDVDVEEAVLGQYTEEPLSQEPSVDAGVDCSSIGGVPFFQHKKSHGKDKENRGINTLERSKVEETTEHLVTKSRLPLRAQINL
UniProt Q9Y664: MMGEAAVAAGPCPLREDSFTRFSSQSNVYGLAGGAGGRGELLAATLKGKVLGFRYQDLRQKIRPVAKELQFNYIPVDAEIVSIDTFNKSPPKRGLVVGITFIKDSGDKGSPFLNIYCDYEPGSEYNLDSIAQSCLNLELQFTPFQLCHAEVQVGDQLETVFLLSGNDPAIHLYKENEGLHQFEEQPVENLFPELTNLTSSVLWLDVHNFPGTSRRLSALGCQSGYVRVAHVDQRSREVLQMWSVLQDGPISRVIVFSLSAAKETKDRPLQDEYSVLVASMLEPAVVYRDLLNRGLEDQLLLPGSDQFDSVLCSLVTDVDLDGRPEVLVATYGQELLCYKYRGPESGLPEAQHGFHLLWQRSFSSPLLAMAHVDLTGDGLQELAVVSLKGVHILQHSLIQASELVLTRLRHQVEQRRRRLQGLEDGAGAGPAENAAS

What was measured:
Test in all cases: log2 fold change, soluble protein after heating vs DMSO (PISA); higher = thermal stabilisation; K562 cells, 10 uM, 30 min; active = over 0.2 and 3.5 SD of the protein, either way, in both replicates (recomputed)
IRAK-1-4 Inhibitor I = compound: C1COCCN1CCN2C3=CC=CC=C3N=C2NC(=O)C4=CC(=CC=C4)[N+](=O)[O-] [IRAK-1-4 Inhibitor I]
In short: (§1)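 K562 cells at 2×10^6 cells/mL were treated for 30 min with 10 μM compound, and aliquots were heated for 3 min over 48°C-58°C before pooling. Extraction used PBS with 0.5% NP-40 at 4°C, and soluble protein was the supernatant after 21,000xg for 90 min, measured by TMTpro 16plex LC-MS/MS with channel sums equalised. Thermal stability values, relative to control samples and from duplicates, are log2 fold changes.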

ibrutinib = compound: C=CC(=O)N1CCC[C@@H](n2nc(-c3ccc(Oc4ccccc4)cc3)c3c(N)ncnc32)C1 [ibrutinib]
In short: as §1

[1] = compound: CC(=O)c1cnc2ccc(-c3cc(Cl)c(O)c(Cl)c3)nc2c1N[C@H]1CC[C@H](CN(C)C)CC1
In short: as §1

ralimetinib = compound: CC(C)(C)Cn1c(N)nc2ccc(-c3[nH]c(C(C)(C)C)nc3-c3ccc(F)cc3)nc21 [ralimetinib]
In short: as §1

[2] = compound: CC(C)(O)CC(=O)NCCn1ccc2ncnc(Nc3ccc(Oc4cccc(C(F)(F)F)c4)c(Cl)c3)c21
In short: as §1

[3] = compound: CC(C)C1=C2N=C(C=C(N2N=C1)NCC3=CC=CC=C3)NCCCCCCN
In short: as §1

[4] = compound: CC(C)C[C@@H](C=O)NC(=O)[C@H](CC(C)C)NC(=O)[C@H](CC(C)C)NC(=O)OCc1ccccc1
In short: as §1

pinometostat = compound: CC(C)N(C[C@H]1O[C@@H](n2cnc3c(N)ncnc32)[C@H](O)[C@@H]1O)[C@H]1C[C@@H](CCc2nc3cc(C(C)(C)C)ccc3[nH]2)C1 [pinometostat]
In short: as §1

[5] = compound: CC1=C(C(CC(=O)N1)C2=CC=C(C=C2)C(F)(F)F)C(=O)NC3=C(C=C4C(=C3)C=NN4)F
In short: as §1

[6] = compound: CC1=C(C2=C(C=C1)C(=O)C3=CC=CC=C3N2CCCN)C
In short: as §1

[7] = compound: CC1=C(C=C(C=C1)NC(=O)C2=CC(=CC=C2)C(C)(C)C#N)NC3=CC4=C(C=C3)N=CN(C4=O)C
In short: as §1

[8] = compound: CC1=C(C=C(C=C1)NC(=O)C2=CC(=CC=C2)N(C)C)NC(=O)C3=CC=C(C=C3)O
In short: as §1

[9] = compound: CC1=NC(=CC=C1)C2=C(N=C(N2)C(C)(C)C)C3=CC4=NC=CN=C4C=C3
In short: as §1

Nexturastat A = compound: CCCCN(Cc1ccc(C(=O)NO)cc1)C(=O)Nc1ccccc1 [Nexturastat A]
In short: as §1

vemurafenib = compound: CCCS(=O)(=O)Nc1ccc(F)c(C(=O)c2c[nH]c3ncc(-c4ccc(Cl)cc4)cc23)c1F [vemurafenib]
In short: as §1

[10] = compound: CCCc1cc(C)[nH]c(=O)c1CNC(=O)c1cc(-c2ccnc(N3CCN(C)CC3)c2)cc2c1cnn2C(C)C
In short: as §1

givinostat = compound: CCN(CC)Cc1ccc2cc(COC(=O)Nc3ccc(C(=O)NO)cc3)ccc2c1 [givinostat]
In short: as §1

barasertib = compound: CCN(CCCOc1ccc2c(Nc3cc(CC(=O)Nc4cccc(F)c4)[nH]n3)ncnc2c1)CCOP(=O)(O)O [barasertib]
In short: as §1

[11] = compound: CC1=CC=C(C=C1)SC2=C3C=C(SC3=CN=C2)C(=O)N
In short: as §1

[12] = compound: CCCS(=O)(=O)Nc1ccc(F)c(C(=O)c2c[nH]c3ncc(Cl)cc23)c1F
In short: as §1

| Target | log2 fold change (IRAK-1-4 Inhibitor I) | log2 fold change (ibrutinib) | log2 fold change [1] | log2 fold change (ralimetinib) | log2 fold change [2] | log2 fold change [3] | log2 fold change [4] | log2 fold change (pinometostat) | log2 fold change [5] | log2 fold change [6] | log2 fold change [7] | log2 fold change [8] | log2 fold change [9] | log2 fold change (Nexturastat A) | log2 fold change (vemurafenib) | log2 fold change [10] | log2 fold change (givinostat) | log2 fold change (barasertib) | log2 fold change [11] | log2 fold change [12] |
| --- | --- | --- | --- | --- | --- | --- | --- | --- | --- | --- | --- | --- | --- | --- | --- | --- | --- | --- | --- | --- |
| KBTBD4 isoform 2 (UniProt Q9NVX7) | inactive: -0.003 | inactive: 0.091 | inactive: -0.029 | inactive: -0.04 | inactive: -0.077 | inactive: -0.01 | inactive: 0.024 | inactive: -0.028 | inactive: -0.022 | inactive: 0.014 | inactive: 0.04 | inactive: -0.075 | inactive: 0.067 | inactive: 0.021 | inactive: 0.022 | inactive: -0.011 | inactive: -0.013 | inactive: 0.065 |  |  |
| KLHDC3 (UniProt Q9BQ90) | inactive: 0.055 | inactive: 0.029 | inactive: -0.068 | inactive: -0.049 | inactive: -0.024 | inactive: 0.074 | inactive: 0.048 | inactive: 0.003 | inactive: 0.011 | inactive: -0.029 | inactive: 0.064 | inactive: -0.021 | inactive: -0.039 | inactive: 0.074 | inactive: -0.01 |  | inactive: 0.105 | inactive: -0.023 | inactive: 0.065 | inactive: -0.003 |
| JAG2 (UniProt Q9Y219) | inactive: 0.101 | inactive: 0.047 | inactive: -0.008 | inactive: -0.136 | inactive: 0.045 | inactive: -0.026 | inactive: 0.046 | inactive: -0.007 | inactive: -0.071 | inactive: 0.027 | inactive: -0.349 | inactive: 0.064 | inactive: -0.118 | inactive: 0.132 | inactive: -0.104 |  | inactive: 0.038 | inactive: 0.117 | inactive: 0.024 | inactive: -0.081 |
| KLC4 isoform 3 (UniProt Q9NSK0) | inactive: 0.021 | inactive: -0.014 | inactive: 0.027 | inactive: 0.033 | inactive: -0.101 | inactive: -0.175 | inactive: -0.065 | inactive: -0.011 | inactive: 0.132 | inactive: 0.029 | inactive: 0.112 | inactive: -0.05 | inactive: 0.101 | inactive: 0.073 | inactive: -0.014 | inactive: 0.046 | inactive: 0.064 | inactive: 0.003 | inactive: 0.011 | inactive: 0.04 |
| KPNA2 (UniProt P52292) | inactive: -0.152 | inactive: -0.058 | inactive: 0.121 | inactive: 0.239 | inactive: 0.055 | inactive: -0.246 | inactive: 0.243 | inactive: 0.46 | inactive: -0.012 | inactive: -0.114 | inactive: 0.017 | inactive: 0.059 | inactive: -0.075 | inactive: 0.345 | inactive: 0.038 | inactive: 0.197 | inactive: 0.159 | inactive: 0.006 | inactive: -0.032 | inactive: -0.02 |
| KIAA2013 isoform 2 (UniProt Q8IYS2) | inactive: -0.002 | inactive: 0.003 | inactive: 0.08 | inactive: -0.018 | inactive: 0.011 | inactive: -0.002 | inactive: 0.004 | inactive: 0.072 | inactive: 0.044 | inactive: -0.032 | inactive: -0.011 | inactive: 0.028 | inactive: -0.002 | inactive: -0.022 | inactive: -0.019 | inactive: -0.033 | inactive: -0.018 | inactive: 0 | inactive: -0.066 | inactive: -0.082 |
| JPT2 isoform 3 (UniProt Q9H910) | inactive: 0.076 | inactive: -0.007 | inactive: -0.022 | inactive: 0.018 | inactive: 0.017 | inactive: 0.075 | inactive: 0.018 | inactive: -0.036 | inactive: 0.011 | inactive: -0.027 | inactive: -0.012 | inactive: -0.002 | inactive: 0.02 | inactive: -0.007 | inactive: -0.013 | inactive: 0.005 | inactive: -0.008 | inactive: 0.01 | inactive: -0.002 | inactive: -0.02 |
| KLC2 (UniProt Q9H0B6) | inactive: -0.035 | inactive: -0.024 | active: -0.309 | inactive: 0.041 | inactive: -0.02 | inactive: -0.107 | inactive: 0.083 | inactive: 0.023 |  | inactive: 0.133 | inactive: 0.025 | inactive: -0.055 | inactive: 0.015 | inactive: 0.001 | inactive: 0.012 | inactive: 0.001 | inactive: 0.044 | inactive: 0.006 | inactive: 0.021 | inactive: 0.096 |
| KNTC1 (UniProt P50748) | inactive: -0.084 | inactive: -0.028 | inactive: 0.058 | inactive: -0.007 | inactive: 0.012 | inactive: -0.157 | inactive: 0.039 | inactive: 0.095 |  | inactive: -0.008 | inactive: -0.027 | inactive: -0.003 | inactive: 0.026 | inactive: 0.034 | inactive: 0.042 | inactive: 0.092 | inactive: 0.082 | inactive: 0.035 | inactive: -0.021 | inactive: 0.036 |
| KRTCAP2 isoform 2 (UniProt Q8N6L1) | inactive: 0.045 | inactive: 0.001 | inactive: -0.01 | inactive: 0.064 | inactive: -0.139 | inactive: -0.156 | inactive: -0.141 | inactive: -0.035 | inactive: -0.043 | inactive: 0.121 | inactive: 0.017 | inactive: 0.043 | inactive: -0.005 | inactive: 0.034 | inactive: -0.013 | inactive: -0.238 | inactive: -0.01 | inactive: -0.094 |  |  |
| KIF1B isoform 4 (UniProt O60333) | inactive: -0.004 | inactive: -0.017 | inactive: 0 | inactive: -0.029 | inactive: -0.063 | inactive: 0.002 | inactive: 0.002 | inactive: 0.061 |  | inactive: -0.024 | inactive: -0.07 | inactive: 0.058 | inactive: 0.024 | inactive: 0.024 | inactive: 0.002 | inactive: 0.018 | inactive: 0.122 | inactive: 0.073 | inactive: 0.008 | inactive: 0.043 |
| KARS1 (UniProt Q15046) | inactive: -0.025 | inactive: 0.032 | inactive: 0.104 | inactive: 0.113 | inactive: 0.085 | inactive: -0.002 | inactive: 0.077 | inactive: 0.232 | inactive: 0.01 | inactive: -0.028 | inactive: -0.018 | inactive: 0.011 | inactive: -0.092 | inactive: 0.126 | inactive: -0.044 | inactive: 0.062 | inactive: -0.016 | inactive: -0.096 | inactive: -0.057 | inactive: -0.039 |
| IWS1 (UniProt Q96ST2) | inactive: -0.026 | inactive: -0.027 | active: 0.492 | inactive: -0.04 | inactive: -0.09 | inactive: 0.166 | inactive: -0.04 | inactive: 0.014 |  | active: -0.301 | inactive: -0.083 | inactive: 0.007 | inactive: -0.02 | inactive: 0.029 | inactive: 0.046 | inactive: -0.017 | inactive: 0.051 | inactive: 0.002 | inactive: -0.015 | inactive: -0.003 |
| KIAA1191 (UniProt Q96A73) | inactive: 0.01 | inactive: -0.047 | inactive: 0.01 | inactive: -0.017 | inactive: 0 | inactive: -0.059 | inactive: -0.008 | inactive: -0.061 | inactive: 0.033 | inactive: 0.159 | inactive: -0.016 | inactive: -0.037 | inactive: 0.001 | inactive: 0 | inactive: 0.005 | inactive: -0.03 | inactive: 0.083 | inactive: 0.059 | inactive: 0.019 | inactive: -0.034 |
| KIF11 (UniProt P52732) | inactive: -0.097 | inactive: -0.049 | inactive: 0.063 | inactive: 0.045 | inactive: -0.024 | inactive: -0.229 | inactive: 0.04 | inactive: 0.188 |  | inactive: -0.014 | inactive: -0.032 | inactive: -0.119 | inactive: -0.033 | inactive: 0.155 | inactive: 0.071 | inactive: 0.076 | inactive: 0.09 | inactive: 0.049 | inactive: -0.005 | inactive: 0.077 |
| KPTN (UniProt Q9Y664) | inactive: 0.053 | inactive: -0.009 | inactive: 0.013 | inactive: -0.027 | inactive: -0.154 | inactive: -0.083 | inactive: 0.025 | inactive: -0.025 | inactive: -0.053 | inactive: 0.036 |  | inactive: -0.005 | inactive: 0.04 | inactive: 0.011 | inactive: 0.123 | inactive: -0.003 | inactive: 0.037 | inactive: 0.103 | inactive: 0.131 | inactive: 0 |

In a second layout: results already given.
Target	log2 fold change (IRAK-1-4 Inhibitor I)	log2 fold change (ibrutinib)	log2 fold change [1]	log2 fold change (ralimetinib)	log2 fold change [2]	log2 fold change [3]	log2 fold change [4]	log2 fold change (pinometostat)	log2 fold change [5]	log2 fold change [6]	log2 fold change [7]	log2 fold change [8]	log2 fold change [9]	log2 fold change (Nexturastat A)	log2 fold change (vemurafenib)	log2 fold change [10]	log2 fold change (givinostat)	log2 fold change (barasertib)	log2 fold change [11]	log2 fold change [12]
KBTBD4 isoform 2 (UniProt Q9NVX7)	inactive: -0.003	inactive: 0.091	inactive: -0.029	inactive: -0.04	inactive: -0.077	inactive: -0.01	inactive: 0.024	inactive: -0.028	inactive: -0.022	inactive: 0.014	inactive: 0.04	inactive: -0.075	inactive: 0.067	inactive: 0.021	inactive: 0.022	inactive: -0.011	inactive: -0.013	inactive: 0.065		
KIF11 (UniProt P52732)	inactive: -0.097	inactive: -0.049	inactive: 0.063	inactive: 0.045	inactive: -0.024	inactive: -0.229	inactive: 0.04	inactive: 0.188		inactive: -0.014	inactive: -0.032	inactive: -0.119	inactive: -0.033	inactive: 0.155	inactive: 0.071	inactive: 0.076	inactive: 0.09	inactive: 0.049	inactive: -0.005	inactive: 0.077
